System: eosinophils
Assay: Eosinophil shape change assay with human plasma
Assay type: cell-based
Conditions: human plasma (50%), PGD2 100 nM activation, antagonistic activity
Text: Eosinophil Shape Change Assay with Human Plasma
After obtaining informed consent, blood samples were drawn by venipuncture according to the protocol approved by the ethics committee of Basel, Switzerland. Polymorphonuclear leukocytes (containing eosinophils, basophils and neutrophils) were isolated using the Polymorphprep™ method (Axis-Shield). […] The polymorphonuclear cell fraction was harvested and depleted for erythrocytes by hypotonic saline lysis. […]
Immediately after fixation with paraformaldehyde, the samples were analyzed by FACSCanto flow cytometer (BD Biosciences) and target cells were identified by their forward-scatter (FSC) and side-scatter (SSC) characteristics. […] Shape change responses, indicative of eosinophil activation, were quantified as the percent of cells with an increased forward-scatter.

IC50: 0.044 µM
SMILES: O=C(O)Cc1ccc(OCC2CC2)c(-c2ccc(F)c3c2CN(C(=O)OCc2ccccc2)CC3)c1 [Example 196, 8-(5-Carboxymethyl-2-cyclopropylmethoxy-phenyl)-5-fluoro-3,4-dihydro-1H-isoquinoline-2-carboxylic acid benzyl ester]

— patent US9255090B2, “Heterocyclyl derivatives and their use as prostaglandin D2 receptor modulators” (Actelion Pharmaceuticals Ltd., priority 2012, dated 2016)
